No constants are given. Whether binding was seen depends on the method and setting. Binding seen in cells or lysates may run through a third protein. Some results given as binding are weak or reduced against the parent protein; the word gives no strength. Sequences can lack the tags named with a protein.

Sequences of proteins named here, by UniProt entry; tags and fusion partners are left off.
UniProt P12956: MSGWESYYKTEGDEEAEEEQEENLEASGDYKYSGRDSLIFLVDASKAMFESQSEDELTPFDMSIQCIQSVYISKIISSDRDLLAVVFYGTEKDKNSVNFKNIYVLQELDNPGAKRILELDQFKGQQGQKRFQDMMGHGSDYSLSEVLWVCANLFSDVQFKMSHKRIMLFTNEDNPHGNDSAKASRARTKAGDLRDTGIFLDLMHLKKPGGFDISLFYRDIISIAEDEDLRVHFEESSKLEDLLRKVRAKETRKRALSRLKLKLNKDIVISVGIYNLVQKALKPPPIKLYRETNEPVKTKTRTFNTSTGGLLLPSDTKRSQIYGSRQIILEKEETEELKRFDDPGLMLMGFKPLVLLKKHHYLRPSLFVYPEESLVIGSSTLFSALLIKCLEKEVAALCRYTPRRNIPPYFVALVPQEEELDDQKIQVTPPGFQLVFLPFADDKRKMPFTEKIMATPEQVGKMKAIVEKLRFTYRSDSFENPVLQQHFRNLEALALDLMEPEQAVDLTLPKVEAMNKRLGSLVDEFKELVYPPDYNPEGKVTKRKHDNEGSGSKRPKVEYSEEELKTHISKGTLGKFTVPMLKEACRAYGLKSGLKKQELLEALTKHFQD
UniProt P13010: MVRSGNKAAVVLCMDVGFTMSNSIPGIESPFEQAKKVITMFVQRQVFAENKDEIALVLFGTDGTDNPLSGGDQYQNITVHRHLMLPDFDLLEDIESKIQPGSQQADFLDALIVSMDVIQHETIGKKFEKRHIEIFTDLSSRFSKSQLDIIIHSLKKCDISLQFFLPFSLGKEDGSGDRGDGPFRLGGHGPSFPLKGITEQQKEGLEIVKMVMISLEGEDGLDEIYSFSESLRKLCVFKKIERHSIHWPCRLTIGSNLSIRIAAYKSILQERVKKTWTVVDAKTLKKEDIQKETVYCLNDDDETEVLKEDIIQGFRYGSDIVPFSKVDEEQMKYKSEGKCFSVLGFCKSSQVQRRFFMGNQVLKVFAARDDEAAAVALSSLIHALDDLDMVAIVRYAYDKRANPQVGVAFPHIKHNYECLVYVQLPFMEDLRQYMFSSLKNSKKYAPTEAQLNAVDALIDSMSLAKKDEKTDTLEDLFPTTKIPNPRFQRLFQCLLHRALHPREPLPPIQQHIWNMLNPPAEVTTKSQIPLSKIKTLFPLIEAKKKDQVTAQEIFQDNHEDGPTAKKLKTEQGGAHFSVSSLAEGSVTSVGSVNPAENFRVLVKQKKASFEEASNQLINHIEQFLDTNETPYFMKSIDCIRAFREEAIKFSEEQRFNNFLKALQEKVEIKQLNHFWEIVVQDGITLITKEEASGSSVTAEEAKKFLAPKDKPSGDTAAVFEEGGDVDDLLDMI
UniProt Q9H814: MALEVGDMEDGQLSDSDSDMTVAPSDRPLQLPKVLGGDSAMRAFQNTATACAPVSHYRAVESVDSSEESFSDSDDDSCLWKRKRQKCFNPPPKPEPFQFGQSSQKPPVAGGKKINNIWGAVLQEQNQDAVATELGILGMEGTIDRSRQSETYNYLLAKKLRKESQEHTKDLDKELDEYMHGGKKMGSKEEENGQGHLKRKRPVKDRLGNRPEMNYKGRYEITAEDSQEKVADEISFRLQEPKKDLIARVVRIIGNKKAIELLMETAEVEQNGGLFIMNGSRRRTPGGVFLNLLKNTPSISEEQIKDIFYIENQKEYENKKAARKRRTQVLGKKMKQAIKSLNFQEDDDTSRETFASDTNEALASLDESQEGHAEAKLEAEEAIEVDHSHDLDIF

These results are taken from publication PMC11304257.

For experiment [1], the target named is T1, Flag-TRIM24 wild type (tripartite motif containing 24) (human) (UniProt O15164).
T1 sequence: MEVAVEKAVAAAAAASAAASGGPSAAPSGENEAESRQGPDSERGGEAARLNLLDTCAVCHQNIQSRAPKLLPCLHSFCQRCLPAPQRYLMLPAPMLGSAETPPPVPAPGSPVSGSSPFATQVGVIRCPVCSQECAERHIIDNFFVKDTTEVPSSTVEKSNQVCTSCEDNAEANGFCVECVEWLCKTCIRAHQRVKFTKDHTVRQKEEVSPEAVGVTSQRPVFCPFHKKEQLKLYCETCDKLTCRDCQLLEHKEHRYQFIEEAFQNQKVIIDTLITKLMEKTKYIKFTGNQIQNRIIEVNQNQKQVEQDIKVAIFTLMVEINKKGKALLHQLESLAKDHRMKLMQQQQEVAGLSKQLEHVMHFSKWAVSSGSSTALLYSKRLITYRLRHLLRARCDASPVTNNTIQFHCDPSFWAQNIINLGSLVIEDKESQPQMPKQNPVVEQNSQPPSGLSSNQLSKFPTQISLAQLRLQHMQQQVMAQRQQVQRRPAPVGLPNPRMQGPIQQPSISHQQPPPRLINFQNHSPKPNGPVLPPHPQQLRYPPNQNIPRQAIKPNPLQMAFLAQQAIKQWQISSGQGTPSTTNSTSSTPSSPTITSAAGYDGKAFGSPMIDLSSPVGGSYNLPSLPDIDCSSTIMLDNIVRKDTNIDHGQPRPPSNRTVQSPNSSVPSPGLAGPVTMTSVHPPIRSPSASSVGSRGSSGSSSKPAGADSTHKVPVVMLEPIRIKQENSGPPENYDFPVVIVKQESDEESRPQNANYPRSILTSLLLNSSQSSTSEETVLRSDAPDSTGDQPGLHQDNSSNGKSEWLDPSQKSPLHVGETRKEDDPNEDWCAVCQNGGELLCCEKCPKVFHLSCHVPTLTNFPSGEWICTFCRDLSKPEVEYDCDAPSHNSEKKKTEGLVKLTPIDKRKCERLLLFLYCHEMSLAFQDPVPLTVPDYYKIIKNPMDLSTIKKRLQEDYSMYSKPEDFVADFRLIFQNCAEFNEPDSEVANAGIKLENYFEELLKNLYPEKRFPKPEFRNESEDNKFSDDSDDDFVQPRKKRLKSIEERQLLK
The experiment can be described thus: co-IP; lysates of NHA/HRas^V12 cells expressing TRIM24 WT, deletion or point mutants; IP lysis buffer (20 mM Tris-HCl pH 7.5, 150 mM NaCl, 1 mM EDTA, 1% Triton X-100), 4 °C, four washes, Western blot; endogenous DNA-PK complex; some panels after NU7441 (4 µM, 24 h), Dabrafenib (40 µM, 24 h), U3 snoRNA knock-down or PHAX knock-down. For orientation: A western blot detects proteins with antibodies after separation by electrophoresis.

In experiment [2] the target is T1, Flag-TRIM24 wild type (tripartite motif containing 24) (human). The experiment can be described thus: co-IP; HEK293T cells with HRas^V12 (Figure S7A,B); lysate.
The target is the same in experiment [3]. The experiment is described as follows: co-IP; HEK293T cells without HRas^V12 (Figure S7A,B); lysate.
Experiment [4] has the same target. The experiment can be described thus: co-IP; NHA cells with HRas^V12, co-transfected with TRIM24, Ku70 and Ku80 constructs; lysate, Western blot.
Experiment [5] shares this target. The experiment is described as follows: condition: only in NHA cells lacking the HRas^V12 mutation; co-IP; NHA cells without HRas^V12, co-transfected with TRIM24, Ku70 and Ku80 constructs; lysate, Western blot.
Experiment [6] shares this target. The experiment can be described thus: co-IP; NHA/TRIM24 cells with or without HRas^V12 overexpression; lysate, Western blot.
For experiment [7] the target is unchanged. The experiment can be described thus: co-IP; NHA/HRas^V12 cells co-transfected with TRIM24 and PHAX constructs; lysate, Western blot.

Take “Ku70 (endogenous) (from UniProt P12956 1-609)”: in experiment [1], the binding result is on record as “binds”.
“Ku70 construct (pEGFP-C1-Flag-Ku70) (from UniProt P12956 1-609)”: the binding result in experiment [2] is listed as “binds”; in experiment [3] it was “no binding (condition: in HEK293T cells without HRas^V12)”; in experiment [4] it was “binds”; in experiment [5], “no binding”.
Regarding “Ku80 (endogenous) (from UniProt P13010 1-732)”, in experiment [1], the binding result is “binds”.
“Ku80 construct (pEGFP-C1-Flag-Ku80) (from UniProt P13010 1-732)”: the binding entry in experiment [2] is recorded as “binds”; in experiment [3], “no binding (condition: in HEK293T cells without HRas^V12)”; in experiment [4] it was “binds”; in experiment [5], “no binding”.
In the case of “Phosphorylated adaptor for RNA export (PHAX) (from UniProt Q9H814 1-394)”, the binding entry in experiment [6] and in experiment [7] was “binds” throughout.
